The target in assay [1] is T1, SIZ1(C162S)-FLAG (Arabidopsis) (UniProt Q680Q4).
T1 sequence: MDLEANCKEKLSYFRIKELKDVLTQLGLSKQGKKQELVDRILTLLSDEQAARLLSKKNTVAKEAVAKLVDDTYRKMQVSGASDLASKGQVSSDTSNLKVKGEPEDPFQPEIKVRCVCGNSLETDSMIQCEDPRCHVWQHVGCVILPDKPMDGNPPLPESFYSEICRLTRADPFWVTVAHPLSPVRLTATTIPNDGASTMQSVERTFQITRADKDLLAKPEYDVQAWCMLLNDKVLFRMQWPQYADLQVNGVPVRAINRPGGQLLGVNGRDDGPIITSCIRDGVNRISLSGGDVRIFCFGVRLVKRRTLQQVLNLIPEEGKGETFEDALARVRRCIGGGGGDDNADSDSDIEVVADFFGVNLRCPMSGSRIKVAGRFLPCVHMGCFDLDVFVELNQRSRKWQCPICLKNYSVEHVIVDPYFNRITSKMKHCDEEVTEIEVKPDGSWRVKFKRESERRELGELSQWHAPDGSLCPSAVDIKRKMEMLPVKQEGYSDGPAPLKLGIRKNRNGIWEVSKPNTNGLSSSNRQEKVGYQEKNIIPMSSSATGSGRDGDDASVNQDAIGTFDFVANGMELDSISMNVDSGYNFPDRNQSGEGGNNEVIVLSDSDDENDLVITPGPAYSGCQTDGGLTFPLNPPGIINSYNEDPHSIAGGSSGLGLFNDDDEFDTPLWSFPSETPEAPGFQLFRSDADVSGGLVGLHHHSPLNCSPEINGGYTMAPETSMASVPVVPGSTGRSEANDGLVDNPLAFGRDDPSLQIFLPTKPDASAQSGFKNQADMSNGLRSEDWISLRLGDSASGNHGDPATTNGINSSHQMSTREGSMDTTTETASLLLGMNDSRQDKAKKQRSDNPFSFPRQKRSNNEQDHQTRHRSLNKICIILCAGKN
The assay can be described thus: co-IP; SIZ1-FH or SIZ1(C162S)-FH and ATX1-RH transiently expressed in N. benthamiana; soluble protein in lysis buffer; immunoprecipitated with anti-DYKDDDDK magnetic beads; blot with anti-RAP tag antibody (PMab2).

Assay [2] deals with T2, SIZ1-FLAG (full-length Arabidopsis SIZ1 with FLAG and His tags) (Arabidopsis) (UniProt Q680Q4).
T2 sequence: T1 sequence with S162C
The description is as above.

Assay [3] concerns the target T3, GST-PHD (PHD finger of Arabidopsis SIZ1 fused to GST) (Arabidopsis) (UniProt Q680Q4).
T3 sequence: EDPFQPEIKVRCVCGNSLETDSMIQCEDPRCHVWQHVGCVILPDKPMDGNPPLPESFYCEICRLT
The assay can be described thus: pull-down; 1 µg GST-PHD or GST-PHD(C162S) and 1 µg MBP-ATXSET incubated overnight in 300 µL peptide-binding buffer (50 mM Tris-HCl pH 7.5, 150 mM NaCl, 0.1% NP-40); pulled down with glutathione Sepharose beads; blot with anti-MBP; both purified.

The target in assay [4] is T4, GST-PHD(C162S) (Arabidopsis) (UniProt Q680Q4).
T4 sequence: T3 sequence with C59S
The description is as above.

The results in this text go back to article PMC6954211.

Numbering of substitutions follows the chain as printed. Results are given in words; binding and its absence hold for the method and conditions named. For some of these results: In cells and extracts the contact can be indirect. Some results given as binding are weak or reduced against the parent protein; the word gives no strength. Where a sequence is shown, tags or fusion partners need not be part of it.

B1: ATX1-RAP (full-length Arabidopsis ATX1 with RAP and His tags) (protein, UniProt Q9C5X4 1-1062)
chain: MACFSNETQIEIDVHDLVEAPIRYDSIESIYSIPSSALCCVNAVGSHSLMSKKVKAQKLPMIEQFEIEGSGVSASDDCCRSDDYKLRIQRPEIVRVYYRRRKRPLRECLLDQAVAVKTESVELDEIDCFEEKKRRKIGNCELVKSGMESIGLRRCKENNAFSGNKQNGSSRRKGSSSKNQDKATLASRSAKKWVRLSYDGVDPTSFIGLQCKVFWPLDALWYEGSIVGYSAERKRYTVKYRDGCDEDIVFDREMIKFLVSREEMELLHLKFCTSNVTVDGRDYDEMVVLAATLDECQDFEPGDIVWAKLAGHAMWPAVIVDESIIGERKGLNNKVSGGGSLLVQFFGTHDFARIKVKQAISFIKGLLSPSHLKCKQPRFEEGMQEAKMYLKAHRLPERMSQLQKGADSVDSDMANSTEEGNSGGDLLNDGEVWLRPTEHVDFRHIIGDLLIINLGKVVTDSQFFKDENHIWPEGYTAMRKFTSLTDHSASALYKMEVLRDAETKTHPLFIVTADSGEQFKGPTPSACWNKIYNRIKKVQNSDSPNILGEELNGSGTDMFGLSNPEVIKLVQDLSKSRPSSHVSMCKNSLGRHQNQPTGYRPVRVDWKDLDKCNVCHMDEEYENNLFLQCDKCRMMVHAKCYGELEPCDGALWLCNLCRPGAPDMPPRCCLCPVVGGAMKPTTDGRWAHLACAIWIPETCLSDVKKMEPIDGVNKVSKDRWKLMCTICGVSYGACIQCSNNSCRVAYHPLCARAAGLCVELENDMSVEGEEADQCIRMLSFCKRHRQTSTACLGSEDRIKSATHKTSEYLPPPNPSGCARTEPYNCFGRRGRKEPEALAAASSKRLFVENQPYVIGGYSRLEFSTYKSIHGSKVSQMNTPSNILSMAEKYRYMRETYRKRLAFGKSGIHGFGIFAKLPHRAGDMMIEYTGELVRPSIADKREQLIYNSMVGAGTYMFRIDDERVIDATRTGSIAHLINHSCVPNCYSRVITVNGDEHIIIFAKRHIPKWEELTYDYRFFSIGERLSCSCGFPGCRGVVNDTEAEEQHAKICVPRCDLIDWTAE
Consider B1, for which the binding result in assay [1] and in assay [2] was “binds” each time.

B2: MBP-ATX1SET (SET domain of ATX1 fused with maltose-binding protein) (domain or fragment, UniProt Q9C5X4 898-1016)
chain: KRLAFGKSGIHGFGIFAKLPHRAGDMMIEYTGELVRPSIADKREQLIYNSMVGAGTYMFRIDDERVIDATRTGSIAHLINHSCVPNCYSRVITVNGDEHIIIFAKRHIPKWEELTYDYR
On to B2, for which the binding entry in assay [3] and in assay [4] was “binds” in each case.

B3: MBP-ATX2SET (SET domain of ATX2 fused with maltose-binding protein) (domain or fragment, UniProt P0CB22 919-1037)
chain: B2 chain with M27V, S38P, Q45H, D63N, V84E, T93S, H107D, I108V, P109A
Consider B3, for which the binding entry in assay [3] and in assay [4] was “binds” in each case.

B4: MBP-ATX4SET (SET domain of ATX4 fused with maltose-binding protein) (domain or fragment, UniProt Q9SUE7 885-1002)
chain: DRVCFGRSGIHGWGLFARRNIQEGEMVLEYRGEQVRGSIADLREARYRRVGKDCYLFKISEEVVVDATDKGNIARLINHSCTPNCYARIMSVGDEESRIVLIAKANVAVGEELTYDYL
Consider B4, for which the binding result in assay [3] and in assay [4] was “binds” throughout.

B5: MBP-ATX5SET (SET domain of ATX5 fused with maltose-binding protein) (domain or fragment, UniProt Q8GZ42 901-1018)
chain: B4 chain with D1E, S38I, V50E, D69E, T82M, E95D, A105T, N106T, V109S, G110C
For B5, the binding entry in assay [3] and in assay [4] was “binds” throughout.
